Test results taken from PubChem BioAssay AID296 (DTP/NCI, 2004).
The list shows only some results of the screen, not a fair sample: it covers a few groups of compounds. Not every dose and run of a compound is shown. T/C: endpoint of the treated group in % of that of the vehicle group. Schedules are NCI's codes, read here as Q, the interval in days (D) or hours (H), X, the number of doses. Some T/C values are negative: the treated tumours shrank. Some doses were run more than once; the results are listed from low to high. Some T/C values are followed by the survivors on the day toxicity was checked; where neither a count nor a note follows, no animal had died by that day. Some doses have a count of surviving animals in place of a T/C: the source holds a T/C of zero for them, seemingly a mark for toxic or unscored doses. Survivors were counted at the toxicity check; its day is shown where the source gives one, and later deaths do not show.

Test system: MX-1 breast xenograft, nude mice, tumor weight T/C
Experiment: NCI In Vivo Anticancer Drug Screen. Data for tumor model Human Mammary Carcinoma MX-1 Xenograft (intrarenal inoculation) in NU/NU Swiss (nude) mice
Conditions: T/C endpoint: mean tumor weight change, higher T/C = larger tumour; for T/C: evaluated on day 11
Method: The antitumor activity of compounds was measured in mice bearing transplantable tumors. Survival or tumor size were measured and the results are expressed as the measurement made in the treated group (T) divided by the measurement made in the vehicle treated control group (C). The tumor model used in this assay is Human Mammary Carcinoma MX-1 Xenograft (intrarenal inoculation) in NU/NU Swiss (nude) mice

[1] = dose: 75.0 mg/kg/injection, schedule: Q04DX003 (sc), vehicle: water
[2] = dose: 150.0 mg/kg/injection, schedule: Q04DX003 (sc), vehicle: water
[3] = dose: 12.5 mg/kg/injection, schedule: Q01DX010 (sc), vehicle: saline with Tween-80
[4] = dose: 100.0 mg/kg/injection, schedule: Q04DX003 (sc), vehicle: Klucel (hydroxypropylcellulose) (HPC)

In the case of Cc1ccc(N(CCBr)CCBr)cc1, the T/C (dose: 18.75 mg/kg/injection, schedule: Q04DX003 (sc), vehicle: Klucel (hydroxypropylcellulose) (HPC)) is reported as 2 and 41 % of control, the T/C (dose: 37.5 mg/kg/injection, schedule: Q04DX003 (sc), vehicle: Klucel (hydroxypropylcellulose) (HPC)) is reported as 2 [5 of 6 alive on day 11] and 12 % of control and the T/C (dose: 75.0 mg/kg/injection, schedule: Q04DX003 (sc), vehicle: Klucel (hydroxypropylcellulose) (HPC)) is reported as -50 and 12 % of control [2 of 2 alive on day 11]. For the same compound, the T/C (dose: 150.0 mg/kg/injection, schedule: Q04DX003 (sc), vehicle: Klucel (hydroxypropylcellulose) (HPC)) was -100 and 9 % of control [4 of 6 alive on day 11].

In the case of C[N+](CCCl)(CCCl)Cc1ccc([N+](=O)[O-])cc1, the T/C (dose: 12.5 mg/kg/injection, schedule: Q04DX003 (sc), vehicle: saline) is reported as 53 and 105 % of control, the T/C (dose: 25.0 mg/kg/injection, schedule: Q04DX003 (sc), vehicle: saline) is reported as 32, 51, 60 % of control and the T/C (dose: 50.0 mg/kg/injection, schedule: Q04DX003 (sc), vehicle: saline) is reported as 3 % of control.

With CC1=CC(=O)C(N(CCCl)CCCl)=CC1=O the T/C (dose: 0.75 mg/kg/injection, schedule: Q01DX010 (sc), vehicle: Klucel (hydroxypropylcellulose) (HPC)) was 1 % of control, the T/C (dose: 1.5 mg/kg/injection, schedule: Q01DX010 (sc), vehicle: Klucel (hydroxypropylcellulose) (HPC)) was -69 [2 of 2 alive on day 11] and -52 % of control and the T/C (dose: 3.0 mg/kg/injection, schedule: Q01DX010 (sc), vehicle: Klucel (hydroxypropylcellulose) (HPC)) was -89 % of control.

NC1CCCCC1.NP(=O)(O)N(CCCl)CCCl was tested, and the T/C (dose: 18.75 mg/kg/injection, schedule: Q04DX003 (sc), vehicle: water) was 115 % of control, the T/C (dose: 37.5 mg/kg/injection, schedule: Q04DX003 (sc), vehicle: water) was 41, 72, 85 % of control and the T/C [1] was -21 [4 of 6 alive on day 11], 9, 90 % of control. The survivor count [1] was 0 of 6 on day 11, the T/C [2] was -91 [4 of 6 alive on day 11], 1 [5 of 6 alive on day 11], 49 % of control and the survivor count [2] was 0 of 6 on day 11. For the same compound, the survivor count (dose: 300.0 mg/kg/injection, schedule: Q04DX003 (sc), vehicle: water) was 0 of 6 on day 11 and the survivor count (dose: 600.0 mg/kg/injection, schedule: Q04DX003 (sc), vehicle: water) was 0 of 6 on day 11.

With ClCCN(CCCl)c1ccccc1 the T/C (dose: 3.13 mg/kg/injection, schedule: Q01DX010 (sc), vehicle: saline with Tween-80) was 1 and 21 % of control, the T/C (dose: 6.25 mg/kg/injection, schedule: Q01DX010 (sc), vehicle: saline with Tween-80) was -49 and -16 % of control and the T/C [3] was -92 % of control. For the same compound, the survivor count [3] was 1 of 3 on day 11, the survivor count (dose: 25.0 mg/kg/injection, schedule: Q01DX010 (sc), vehicle: saline with Tween-80) was 0 of 3 on day 11 and the T/C (dose: 50.0 mg/kg/injection, schedule: Q04DX003 (sc), vehicle: Klucel (hydroxypropylcellulose) (HPC)) was -100 [2 of 3 alive on day 11] and -86 % of control. For the same compound, the T/C [4] was -65 % of control [4 of 6 alive on day 11], the survivor count [4] was 0 of 3 on day 11 and the survivor count (dose: 200.0 mg/kg/injection, schedule: Q04DX003 (sc), vehicle: Klucel (hydroxypropylcellulose) (HPC)) was 0 of 3 on day 11 and 0 of 6 on day 11. The survivor count (dose: 400.0 mg/kg/injection, schedule: Q04DX003 (sc), vehicle: Klucel (hydroxypropylcellulose) (HPC)) was 0 of 3 on day 11 and 0 of 6 on day 11.

With O=NN(CCSCCCl)C(=O)NC1CCCCC1 the T/C (dose: 300.0 mg/kg/injection, schedule: Q04DX003 (sc), vehicle: saline with Tween-80) was -100 and 28 % of control and the T/C (dose: 600.0 mg/kg/injection, schedule: Q04DX003 (sc), vehicle: saline with Tween-80) was 7 % of control.
